Source: the supplement of paper PMC6411743
± gives the standard deviation of the averaged measurements. The list shows a part of the results, in another mix than the full data.

The chains behind the UniProt entries cited, without tags or fusion partners. Where a name states a change or a piece, a line headed by the entry shows the natural chain unless it says otherwise.
UniProt P48147: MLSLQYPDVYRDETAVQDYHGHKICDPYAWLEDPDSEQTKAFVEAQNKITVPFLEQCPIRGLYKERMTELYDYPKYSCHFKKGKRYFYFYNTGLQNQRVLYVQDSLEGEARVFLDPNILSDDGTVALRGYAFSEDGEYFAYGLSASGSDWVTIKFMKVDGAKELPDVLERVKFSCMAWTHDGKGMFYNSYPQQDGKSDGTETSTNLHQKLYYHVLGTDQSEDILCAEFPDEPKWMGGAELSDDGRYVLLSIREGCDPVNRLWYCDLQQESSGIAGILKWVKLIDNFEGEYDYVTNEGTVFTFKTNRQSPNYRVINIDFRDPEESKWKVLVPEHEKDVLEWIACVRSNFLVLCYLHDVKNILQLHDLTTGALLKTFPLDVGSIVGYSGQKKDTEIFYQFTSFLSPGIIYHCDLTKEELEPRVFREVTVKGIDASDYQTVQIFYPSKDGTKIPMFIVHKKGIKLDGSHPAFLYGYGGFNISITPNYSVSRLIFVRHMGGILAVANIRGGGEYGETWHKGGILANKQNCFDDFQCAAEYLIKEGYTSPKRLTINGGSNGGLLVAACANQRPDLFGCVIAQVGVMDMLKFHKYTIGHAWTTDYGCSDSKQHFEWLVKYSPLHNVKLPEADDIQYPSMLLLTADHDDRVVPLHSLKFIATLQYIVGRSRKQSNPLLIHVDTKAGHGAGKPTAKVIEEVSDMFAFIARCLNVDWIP
UniProt P50851: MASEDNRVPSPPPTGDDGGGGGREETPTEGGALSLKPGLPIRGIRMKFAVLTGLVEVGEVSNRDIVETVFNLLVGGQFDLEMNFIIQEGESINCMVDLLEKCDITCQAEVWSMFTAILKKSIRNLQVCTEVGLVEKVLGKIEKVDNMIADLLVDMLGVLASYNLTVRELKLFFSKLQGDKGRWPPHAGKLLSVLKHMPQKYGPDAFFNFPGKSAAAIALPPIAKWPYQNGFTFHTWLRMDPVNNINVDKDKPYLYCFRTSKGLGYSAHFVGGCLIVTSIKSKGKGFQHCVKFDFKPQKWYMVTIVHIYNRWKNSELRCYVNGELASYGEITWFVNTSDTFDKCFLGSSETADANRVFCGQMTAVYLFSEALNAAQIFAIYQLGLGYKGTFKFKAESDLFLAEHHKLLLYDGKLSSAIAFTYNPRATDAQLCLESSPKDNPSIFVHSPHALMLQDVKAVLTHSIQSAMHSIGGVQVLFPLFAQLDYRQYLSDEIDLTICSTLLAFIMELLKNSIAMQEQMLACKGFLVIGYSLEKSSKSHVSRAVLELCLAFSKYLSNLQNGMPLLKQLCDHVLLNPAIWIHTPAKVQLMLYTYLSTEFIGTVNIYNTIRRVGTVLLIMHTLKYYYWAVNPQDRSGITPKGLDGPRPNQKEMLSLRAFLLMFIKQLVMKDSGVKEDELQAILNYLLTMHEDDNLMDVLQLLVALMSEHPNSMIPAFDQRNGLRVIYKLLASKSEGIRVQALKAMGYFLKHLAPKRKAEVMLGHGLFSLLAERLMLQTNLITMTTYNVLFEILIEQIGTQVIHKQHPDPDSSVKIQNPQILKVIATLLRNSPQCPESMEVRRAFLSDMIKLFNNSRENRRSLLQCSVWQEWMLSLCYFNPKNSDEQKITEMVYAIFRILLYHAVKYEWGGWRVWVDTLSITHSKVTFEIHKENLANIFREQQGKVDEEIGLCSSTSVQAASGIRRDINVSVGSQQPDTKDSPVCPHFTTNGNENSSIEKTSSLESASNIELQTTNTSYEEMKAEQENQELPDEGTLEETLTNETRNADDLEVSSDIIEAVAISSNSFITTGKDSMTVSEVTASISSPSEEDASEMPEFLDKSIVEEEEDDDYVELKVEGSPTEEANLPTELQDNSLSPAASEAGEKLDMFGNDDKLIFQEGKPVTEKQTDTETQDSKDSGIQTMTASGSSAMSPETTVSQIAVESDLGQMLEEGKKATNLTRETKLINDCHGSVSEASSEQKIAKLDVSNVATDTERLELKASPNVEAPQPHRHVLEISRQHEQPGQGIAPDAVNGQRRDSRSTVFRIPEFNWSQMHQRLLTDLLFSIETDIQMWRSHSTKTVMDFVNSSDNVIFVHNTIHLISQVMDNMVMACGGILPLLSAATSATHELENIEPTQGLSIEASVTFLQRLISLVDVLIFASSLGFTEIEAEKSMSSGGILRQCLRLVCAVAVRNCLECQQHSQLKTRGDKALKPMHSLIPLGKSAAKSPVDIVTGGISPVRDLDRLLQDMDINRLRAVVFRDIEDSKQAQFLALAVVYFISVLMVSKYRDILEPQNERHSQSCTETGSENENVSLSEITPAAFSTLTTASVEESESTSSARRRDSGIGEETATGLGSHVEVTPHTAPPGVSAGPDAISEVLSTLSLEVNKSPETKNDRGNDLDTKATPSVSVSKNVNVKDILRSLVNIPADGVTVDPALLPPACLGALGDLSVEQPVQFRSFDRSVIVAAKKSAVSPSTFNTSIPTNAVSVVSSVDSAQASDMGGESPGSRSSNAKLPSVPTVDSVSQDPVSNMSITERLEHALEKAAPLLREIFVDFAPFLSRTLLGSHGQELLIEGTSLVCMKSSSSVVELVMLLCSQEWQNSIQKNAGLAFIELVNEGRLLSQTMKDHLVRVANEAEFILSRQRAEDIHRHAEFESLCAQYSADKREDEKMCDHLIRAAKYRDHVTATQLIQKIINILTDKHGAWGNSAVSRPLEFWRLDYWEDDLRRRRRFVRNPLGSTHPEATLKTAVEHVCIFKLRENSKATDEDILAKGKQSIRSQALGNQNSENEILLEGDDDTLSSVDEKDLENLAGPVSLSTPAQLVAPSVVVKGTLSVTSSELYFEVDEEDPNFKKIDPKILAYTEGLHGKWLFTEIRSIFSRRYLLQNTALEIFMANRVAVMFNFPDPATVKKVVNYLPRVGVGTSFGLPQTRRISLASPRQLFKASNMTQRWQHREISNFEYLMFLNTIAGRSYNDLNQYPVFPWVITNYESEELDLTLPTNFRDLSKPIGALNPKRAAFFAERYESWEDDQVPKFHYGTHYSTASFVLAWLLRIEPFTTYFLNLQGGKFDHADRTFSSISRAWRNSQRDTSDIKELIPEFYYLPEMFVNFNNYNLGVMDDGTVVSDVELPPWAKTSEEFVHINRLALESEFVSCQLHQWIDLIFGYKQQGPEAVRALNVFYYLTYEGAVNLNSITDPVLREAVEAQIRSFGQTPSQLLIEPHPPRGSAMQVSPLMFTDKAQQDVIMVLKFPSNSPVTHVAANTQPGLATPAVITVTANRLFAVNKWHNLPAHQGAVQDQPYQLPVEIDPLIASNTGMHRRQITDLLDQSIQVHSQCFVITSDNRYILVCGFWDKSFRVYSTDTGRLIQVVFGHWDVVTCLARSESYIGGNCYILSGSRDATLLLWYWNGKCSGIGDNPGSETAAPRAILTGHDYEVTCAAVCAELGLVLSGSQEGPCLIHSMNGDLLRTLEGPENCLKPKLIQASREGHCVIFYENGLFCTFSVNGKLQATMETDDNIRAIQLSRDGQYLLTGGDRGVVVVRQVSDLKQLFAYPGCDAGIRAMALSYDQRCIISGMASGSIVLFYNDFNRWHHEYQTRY
UniProt P48507: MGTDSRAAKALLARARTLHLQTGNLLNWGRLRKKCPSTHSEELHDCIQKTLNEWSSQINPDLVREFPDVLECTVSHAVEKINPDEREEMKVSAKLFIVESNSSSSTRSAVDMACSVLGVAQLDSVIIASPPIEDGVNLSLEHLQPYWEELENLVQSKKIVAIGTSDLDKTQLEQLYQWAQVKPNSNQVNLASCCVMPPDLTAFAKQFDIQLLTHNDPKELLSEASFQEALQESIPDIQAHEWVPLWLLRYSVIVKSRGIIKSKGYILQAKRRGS
UniProt P52739: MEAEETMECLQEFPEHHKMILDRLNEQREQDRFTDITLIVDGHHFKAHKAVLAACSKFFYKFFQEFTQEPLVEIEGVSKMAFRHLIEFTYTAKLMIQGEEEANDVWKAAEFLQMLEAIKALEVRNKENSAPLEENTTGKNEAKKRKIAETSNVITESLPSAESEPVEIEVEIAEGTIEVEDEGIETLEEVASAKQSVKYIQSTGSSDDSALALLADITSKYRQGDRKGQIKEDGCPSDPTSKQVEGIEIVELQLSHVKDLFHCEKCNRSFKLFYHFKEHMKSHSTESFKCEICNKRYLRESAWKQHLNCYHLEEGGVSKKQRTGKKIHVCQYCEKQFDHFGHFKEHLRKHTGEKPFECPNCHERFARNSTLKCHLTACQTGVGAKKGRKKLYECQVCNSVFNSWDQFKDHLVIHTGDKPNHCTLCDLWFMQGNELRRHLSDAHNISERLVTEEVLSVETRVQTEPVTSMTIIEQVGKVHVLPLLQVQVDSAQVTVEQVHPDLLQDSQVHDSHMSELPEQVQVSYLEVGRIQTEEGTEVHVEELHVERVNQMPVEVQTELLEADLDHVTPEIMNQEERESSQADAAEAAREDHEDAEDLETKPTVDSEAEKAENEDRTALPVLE
UniProt P43362: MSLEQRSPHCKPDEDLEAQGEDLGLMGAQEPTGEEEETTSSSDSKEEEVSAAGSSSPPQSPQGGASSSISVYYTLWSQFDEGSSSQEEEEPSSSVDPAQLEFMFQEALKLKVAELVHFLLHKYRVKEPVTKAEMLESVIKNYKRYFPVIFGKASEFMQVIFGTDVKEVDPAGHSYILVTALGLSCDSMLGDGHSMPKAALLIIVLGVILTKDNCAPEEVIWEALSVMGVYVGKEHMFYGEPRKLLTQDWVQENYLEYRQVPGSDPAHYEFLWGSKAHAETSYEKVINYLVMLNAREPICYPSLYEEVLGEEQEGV
UniProt P41134: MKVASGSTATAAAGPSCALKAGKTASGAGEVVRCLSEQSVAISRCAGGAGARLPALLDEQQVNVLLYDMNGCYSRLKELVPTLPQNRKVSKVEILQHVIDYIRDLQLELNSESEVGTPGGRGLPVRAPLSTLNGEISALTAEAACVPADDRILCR
UniProt P51532, whole entry: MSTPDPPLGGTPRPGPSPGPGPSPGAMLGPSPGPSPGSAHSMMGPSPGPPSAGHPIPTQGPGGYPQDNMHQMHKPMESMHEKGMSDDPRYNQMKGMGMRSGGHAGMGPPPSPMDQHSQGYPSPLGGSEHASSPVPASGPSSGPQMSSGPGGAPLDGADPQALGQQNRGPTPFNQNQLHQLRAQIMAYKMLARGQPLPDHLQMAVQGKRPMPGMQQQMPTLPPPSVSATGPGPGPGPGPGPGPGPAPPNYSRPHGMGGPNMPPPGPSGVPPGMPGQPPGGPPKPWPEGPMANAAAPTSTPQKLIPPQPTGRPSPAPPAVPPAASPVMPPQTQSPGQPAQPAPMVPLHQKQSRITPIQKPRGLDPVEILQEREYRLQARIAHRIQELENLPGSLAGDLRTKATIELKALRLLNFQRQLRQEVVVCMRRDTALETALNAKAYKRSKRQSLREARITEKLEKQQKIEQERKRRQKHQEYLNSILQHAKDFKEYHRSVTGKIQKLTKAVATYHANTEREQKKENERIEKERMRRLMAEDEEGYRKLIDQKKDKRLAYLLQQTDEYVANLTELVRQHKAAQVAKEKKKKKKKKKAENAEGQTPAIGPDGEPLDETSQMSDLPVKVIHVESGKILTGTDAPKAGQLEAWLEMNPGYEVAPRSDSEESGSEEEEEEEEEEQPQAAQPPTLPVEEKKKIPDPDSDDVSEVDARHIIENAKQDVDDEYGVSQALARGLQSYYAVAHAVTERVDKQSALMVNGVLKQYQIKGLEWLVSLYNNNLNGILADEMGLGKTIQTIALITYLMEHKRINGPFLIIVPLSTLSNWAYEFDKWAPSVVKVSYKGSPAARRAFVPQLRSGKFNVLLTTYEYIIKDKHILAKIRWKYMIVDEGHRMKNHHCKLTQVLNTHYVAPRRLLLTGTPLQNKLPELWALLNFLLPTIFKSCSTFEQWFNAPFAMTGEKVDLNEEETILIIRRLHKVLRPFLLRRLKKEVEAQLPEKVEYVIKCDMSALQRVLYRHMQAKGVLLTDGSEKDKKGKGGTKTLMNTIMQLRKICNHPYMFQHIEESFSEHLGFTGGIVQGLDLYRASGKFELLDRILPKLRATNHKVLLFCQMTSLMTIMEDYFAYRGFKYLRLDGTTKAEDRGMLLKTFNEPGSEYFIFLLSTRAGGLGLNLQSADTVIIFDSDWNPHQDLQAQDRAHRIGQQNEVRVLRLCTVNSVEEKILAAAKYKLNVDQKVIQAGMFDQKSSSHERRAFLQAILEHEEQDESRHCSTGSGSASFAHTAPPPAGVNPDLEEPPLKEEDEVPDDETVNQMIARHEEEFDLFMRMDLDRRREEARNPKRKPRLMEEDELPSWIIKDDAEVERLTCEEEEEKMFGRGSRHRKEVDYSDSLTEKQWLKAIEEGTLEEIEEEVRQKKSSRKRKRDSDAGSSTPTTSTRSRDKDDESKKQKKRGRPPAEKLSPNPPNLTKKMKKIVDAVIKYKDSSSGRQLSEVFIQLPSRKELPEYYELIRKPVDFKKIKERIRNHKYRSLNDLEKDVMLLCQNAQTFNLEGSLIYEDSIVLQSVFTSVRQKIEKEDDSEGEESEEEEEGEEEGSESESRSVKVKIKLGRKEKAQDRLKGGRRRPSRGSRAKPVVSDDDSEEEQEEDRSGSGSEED

Compound: Nc1ncnc2c1ncn2[C@@H]1O[C@H](COP(=O)(O)OP(=O)(O)OP(=O)(O)O)[C@@H](O)[C@H]1O [adenosine triphosphate]
Test: NP40-soluble protein abundance relative to vehicle (solubility fold change) (ratio); higher = more soluble protein in presence of ATP
Details: concentration: 1mM
Summary of the method: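 Jurkat crude lysate (Dounce-homogenised) was treated with eight concentrations from 0.1 to 10 mM for 10 min at room temperature, then 3 min at 37 °C. It was solubilised with 0.8% NP40 and benzonase (60 min, 4 °C) and ultracentrifuged, and the supernatant was TMT-labelled for LC-MS/MS. Intensities were vsn-normalised, and the value is the fold change against the NP40-processed vehicle per replicate, from three independent experiments.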

Target	NP40-soluble protein abundance
RPL27A (UniProt P46776)	0.973 ± 0.051
PREP (UniProt P48147)	1.06 ± 0.1
UniProt P49916 and related entries	1.079 ± 0.0099
RPL3 (UniProt P39023)	1.02 ± 0.049
UniProt P50851 and related entries	1.02 ± 0.048
UniProt P49023-2	0.952 ± 0.02
UniProt P36402-5	0.903 ± 0.082
GCLM (UniProt P48507)	0.9355 ± 0.0039
UniProt P40763 and related entries	0.994 ± 0.057
RBM5 (UniProt P52756)	1.054 ± 0.0081
TXLNA (UniProt P40222)	1.01 ± 0.014
UniProt P52739 and related entries	1.02 ± 0.2
FEN1 (UniProt P39748)	0.977 ± 0.063
MCM2 (UniProt P49736)	1.01 ± 0.066
RPL29 (UniProt P47914)	0.965 ± 0.17
UniProt P51812	1.09 ± 0.15
MAGEA9 (UniProt P43362)	0.946 ± 0.12
UniProt P48729 and related entries	1.12 ± 0.11
UniProt P41134 and related entries	0.914 ± 0.12

Target	NP40-soluble protein abundance
UniProt P36639 and related entries	0.989 ± 0.028
CASP3 (UniProt P42574)	0.997 ± 0.073
CCT4 (UniProt P50991)	0.911 ± 0.082
RANBP2 (UniProt P49792)	1.02 ± 0.024
UniProt P48960 and related entries	0.961 ± 0.045
PPOX (UniProt P50336)	0.999 ± 0.15
HPCAL1 (UniProt P37235)	0.953 ± 0.017
UniProt P51532-2|P51532-3|P51532-4|P51532-5|Q9HBD4 and related entries	1.05 ± 0.053
TUFM (UniProt P49411)	1.02 ± 0.038
UniProt P45983-3|P45983-4	1.03 ± 0.051
UniProt P36954	1.03 ± 0.073
UniProt P51148 and related entries	1.01 ± 0.077
UniProt P46108 and related entries	1.03 ± 0.038
ST13 (UniProt P50502)	0.9 ± 0.11
CDC34 (UniProt P49427)	0.98 ± 0.11
NUP153 (UniProt P49790)	0.948 ± 0.04
TSFM (UniProt P43897)	0.963 ± 0.083
UniProt P48059 and related entries	1 ± 0.067

Same assay, conditions: concentration: 2mM

Target	NP40-soluble protein abundance
RPL27A (UniProt P46776)	0.881 ± 0.12
PREP (UniProt P48147)	0.999 ± 0.09
UniProt P49916 and related entries	1.07 ± 0.032
RPL3 (UniProt P39023)	0.95 ± 0.046
UniProt P50851 and related entries	0.998 ± 0.029
UniProt P49023-2	0.974 ± 0.031
UniProt P36402-5	0.87 ± 0.1
GCLM (UniProt P48507)	0.9519 ± 0.0088
UniProt P40763 and related entries	1.01 ± 0.058
RBM5 (UniProt P52756)	1.04 ± 0.065
TXLNA (UniProt P40222)	0.982 ± 0.061
UniProt P52739 and related entries	0.999 ± 0.12
FEN1 (UniProt P39748)	0.919 ± 0.1
MCM2 (UniProt P49736)	0.952 ± 0.053
RPL29 (UniProt P47914)	0.965 ± 0.26
UniProt P51812	1.04 ± 0.084
MAGEA9 (UniProt P43362)	0.964 ± 0.056
UniProt P48729 and related entries	1.08 ± 0.067
UniProt P41134 and related entries	0.882 ± 0.19

Target	NP40-soluble protein abundance
UniProt P36639 and related entries	0.966 ± 0.049
CASP3 (UniProt P42574)	0.992 ± 0.043
CCT4 (UniProt P50991)	0.809 ± 0.075
RANBP2 (UniProt P49792)	1.01 ± 0.036
UniProt P48960 and related entries	0.97 ± 0.026
PPOX (UniProt P50336)	0.923 ± 0.14
HPCAL1 (UniProt P37235)	0.96002 ± 0.00077
UniProt P51532-2|P51532-3|P51532-4|P51532-5|Q9HBD4 and related entries	1.03 ± 0.061
TUFM (UniProt P49411)	0.984 ± 0.027
UniProt P45983-3|P45983-4	1.04 ± 0.079
UniProt P36954	1.07 ± 0.041
UniProt P51148 and related entries	1.02 ± 0.075
UniProt P46108 and related entries	1.005 ± 0.0089
ST13 (UniProt P50502)	0.885 ± 0.065
CDC34 (UniProt P49427)	0.94 ± 0.025
NUP153 (UniProt P49790)	0.954 ± 0.014
TSFM (UniProt P43897)	0.972 ± 0.024
UniProt P48059 and related entries	1.02 ± 0.09

Same assay, conditions: concentration: 4mM

Target	NP40-soluble protein abundance
RPL27A (UniProt P46776)	0.867 ± 0.087
PREP (UniProt P48147)	0.992 ± 0.074
UniProt P49916 and related entries	1.05 ± 0.022
RPL3 (UniProt P39023)	0.958 ± 0.067
UniProt P50851 and related entries	0.995 ± 0.03
UniProt P49023-2	0.9482 ± 0.0052
UniProt P36402-5	0.868 ± 0.14
GCLM (UniProt P48507)	0.902 ± 0.016
UniProt P40763 and related entries	0.975 ± 0.036
RBM5 (UniProt P52756)	1.11 ± 0.052
TXLNA (UniProt P40222)	1.04 ± 0.085
UniProt P52739 and related entries	0.994 ± 0.13
FEN1 (UniProt P39748)	1.01 ± 0.028
MCM2 (UniProt P49736)	0.925 ± 0.051
RPL29 (UniProt P47914)	0.908 ± 0.18
UniProt P51812	1.03 ± 0.075
MAGEA9 (UniProt P43362)	0.933 ± 0.057
UniProt P48729 and related entries	1.15 ± 0.095
UniProt P41134 and related entries	0.984 ± 0.16

Target	NP40-soluble protein abundance
UniProt P36639 and related entries	0.939 ± 0.025
CASP3 (UniProt P42574)	0.989 ± 0.078
CCT4 (UniProt P50991)	0.798 ± 0.037
RANBP2 (UniProt P49792)	1.03 ± 0.032
UniProt P48960 and related entries	0.954 ± 0.032
PPOX (UniProt P50336)	0.967 ± 0.097
HPCAL1 (UniProt P37235)	0.946 ± 0.015
UniProt P51532-2|P51532-3|P51532-4|P51532-5|Q9HBD4 and related entries	1.02 ± 0.058
TUFM (UniProt P49411)	0.977 ± 0.015
UniProt P45983-3|P45983-4	1.02 ± 0.093
UniProt P36954	1.05 ± 0.049
UniProt P51148 and related entries	0.977 ± 0.029
UniProt P46108 and related entries	1.04 ± 0.066
ST13 (UniProt P50502)	0.895 ± 0.057
CDC34 (UniProt P49427)	1.02 ± 0.051
NUP153 (UniProt P49790)	0.948 ± 0.015
TSFM (UniProt P43897)	0.953 ± 0.057
UniProt P48059 and related entries	1.01 ± 0.1
